Data reported in US20100130423A1.
No constants are given. Whether binding was seen depends on the method and setting. In cells and extracts the contact can be indirect. Some binding calls cover weakened binding; strength is not graded here.

What was measured:
[1] = biological target: Janus kinase 2, wild type (JAK2 WT), O60674; assay: co-immunoprecipitation with JAK2 antibody from 293T lysates, Western blot with LnK antibody; settings: remark: other sources report otherwise
[2] = biological target: Janus kinase 2, wild type (JAK2 WT), O60674; assay: co-immunoprecipitation with JAK2 antibody, Western blot with LnK antibody (legend of FIG. 4A); settings: remark: other sources report otherwise

binding [1]: binds
binding [2]: binds
B1: adaptor protein LnK, wild type, Q9UQQ2 1-575 (protein, UniProt Q9UQQ2 1-575, looked up)
chain: MNGPALQPSSPSSAPSASPAAAPRGWSEFCELHAVAAARELARQYWLFAREHPQHAPLRAELVSLQFTDLFQRYFCREVRDGRAPGRDYRDTGRGPPAKAEASPEPGPGPAAPGLPKARSSEELAPPRPPGPCSFQHFRRSLRHIFRRRSAGELPAAHTAAAPGTPGEAAETPARPGLAKKFLPWSLAREPPPEALKEAVLRYSLADEASMDSGARWQRGRLALRRAPGPDGPDRVLELFDPPKSSRPKLQAACSSIQEVRWCTRLEMPDNLYTFVLKVKDRTDIIFEVGDEQQLNSWMAELSECTGRGLESTEAEMHIPSALEPSTSSSPRGSTDSLNQGASPGGLLDPACQKTDHFLSCYPWFHGPISRVKAAQLVQLQGPDAHGVFLVRQSETRRGEYVLTFNFQGIAKHLRLSLTERGQCRVQHLHFPSVVDMLHHFQRSPIPLECGAACDVRLSSYVVVVSQPPGSCNTVLFPFSLPHWDSESLPHWGSELGLPHLSSSGCPRGLSPEGLPGRSSPPEQIFHLVPSPEELANSLQHLEHEPVNRARDSDYEMDSSSRSHLRAIDNQYTPL
